Results deposited as PubChem BioAssay AID602196 (INSERM, 2012).
This is one part, drawn at random, of about 23,000 deposited reagents. In the full data, 455 (2%) were called active. 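Active includes both protection and sensitisation; some change values fall well beyond the stated -50 to +50 range.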 Unmarked entries are inactive. No sequences are given here. Not stated in the record: the amount of reagent.

Assay: 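Knock-downs that protect lung cancer cells from cisplatin or sensitise them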
Cells: human A549 lung cancer cells
Reagent: siRNA pair against human genes
Timing: 48 h transfection before cisplatin; time from cisplatin to read-out not stated
Conditions: cisplatin at a dose killing half of control-siRNA cells; exact dose and duration not given
Detection: 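Cisplatin cell death as a shift from the 50% death seen with control siRNA; siRNAs toxic or growth-blocking alone scored 0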
Scale: two-siRNA summed score (-2 to +2): higher = both siRNAs protect from cisplatin killing; -2 means both sensitise; mean protection from cisplatin (shift in death) and protection from cisplatin (shift in death), siRNA C and protection from cisplatin (shift in death), siRNA D: higher = protection from cisplatin killing
Active means: 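siRNAs harmful alone (LDH or WST-1) get 0; others get +1 for less and -1 for more cisplatin killing; genes are active when the two siRNAs give the same sign, summing to ±2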
Meaning of the calls: active = both siRNAs shift cisplatin killing the same way; inactive = no consistent shift, or siRNA harmful alone

gene | PubChem SID | two-siRNA summed score (-2 to +2) | mean protection from cisplatin (shift in death) (%) | protection from cisplatin (shift in death), siRNA C (%) | protection from cisplatin (shift in death), siRNA D (%)
LOC401021 | SID131516730 | 0 | 11.5 | 20.6 | 2.4
LMOD1 (leiomodin 1) | SID131507564 | 0 | 0 | -6.8 | 6.9
NOX4 (NADPH oxidase 4) | SID131501211 | -1 | -11.4 | -6.7 | -16
MYBPC3 (myosin binding protein C3) | SID131506339 | 0 | -1.7 | -11.6 | 8.2
GUCA1A (guanylate cyclase activator 1A) | SID131500339 | -2 (active) | -21.5 | -18.3 | -24.8
GCC2 (GRIP and coiled-coil domain containing 2) | SID131513542 | 0 | 6.7 | -1.7 | 15.1
LYSMD4 (LysM domain containing 4) | SID131512146 | 0 | 5.2 | 4.2 | 6.1
ZNF256 (zinc finger protein 256) | SID131515018 | 0 | 8.6 | 13.1 | 4
ZBTB37 (zinc finger and BTB domain containing 37) | SID131505134 | 0 | -3.7 | 4.6 | -12
PEAK3 (PEAK family member 3) | SID131520518 | 1 | 10.2 | 14.2 | 6.2
PPP1R3D (protein phosphatase 1 regulatory subunit 3D) | SID131502335 | -1 | -3.3 | -10.6 | 4
LOC392425 | SID131519398 | 1 | 5.3 | 11.3 | -0.8
MCM4 (minichromosome maintenance complex component 4) | SID131506346 | 0 | -1.7 | 2.6 | -5.9
RTKN2 (rhotekin 2) | SID131522588 | 1 | 20.2 | 24.9 | 15.4
HSD17B8 (hydroxysteroid 17-beta dehydrogenase 8) | SID131500759 | -1 | -16.5 | -26.9 | -6
ACOT2 (acyl-CoA thioesterase 2) | SID131519176 | 1 | 3.3 | 12.4 | -5.8
PBDC1 (polysaccharide biosynthesis domain containing 1) | SID131514480 | 0 | 7.8 | 25.7 | -10
LINC02538 (long independently transcribed non-coding RNA 2538) | SID131513723 | 0 | 6.9 | 13.9 | -0.1
MCM10 (minichromosome maintenance 10 replication initiation factor) | SID131515296 | 0 | 8.9 | 8.9 | 8.9
KDELR2 (KDEL endoplasmic reticulum protein retention receptor 2) | SID131509107 | 0 | 1.8 | 6.4 | -2.8
LOC442398 | SID131501290 | -1 | -10.7 | -1.4 | -20
LINC01018 (long independently transcribed non-coding RNA 1018) | SID131515131 | 0 | 8.7 | -2 | 19.4
LOC400512 | SID131508254 | 0 | 0.8 | 6.7 | -5.1
LOC441860 | SID131501486 | -1 | -9.5 | -4.7 | -14.3
SMDT1 (single-pass membrane protein with aspartate rich tail 1) | SID131516473 | 0 | 10.9 | 8.1 | 13.8
CACNA1G (calcium voltage-gated channel subunit alpha1 G) | SID131503113 | 0 | -13.4 | -14 | -12.8
FZD9 (frizzled class receptor 9) | SID131509898 | 0 | 2.6 | 7.3 | -2.1
OSR1 (odd-skipped related transcription factor 1) | SID131508609 | 0 | 1.3 | 1.9 | 0.6
CCNDBP1 (cyclin D1 binding protein 1) | SID131517065 | 0 | 12.3 | 14.6 | 10
MTNR1A (melatonin receptor 1A) | SID131512470 | 0 | 5.5 | 10.8 | 0.2
FCRL1 (Fc receptor like 1) | SID131513727 | 0 | 6.9 | 11 | 2.9
CENPF (centromere protein F) | SID131521694 | 1 | 14.5 | 19.8 | 9.1
CLIC2 (CLIC family member 2) | SID131522218 | 1 | 16.9 | 21.6 | 12.3
ADCK5 (aarF domain containing kinase 5) | SID131505293 | 0 | -3.4 | 3.2 | -10
CDK3 (cyclin dependent kinase 3) | SID131510368 | 0 | 3.2 | 7.3 | -0.9
BDH1 (3-hydroxybutyrate dehydrogenase 1) | SID131514631 | 0 | 8 | 17.9 | -1.8
STAU2 (staufen double-stranded RNA binding protein 2) | SID131500876 | -1 | -14.9 | -0.1 | -29.7
LBR (lamin B receptor) | SID131517910 | 0 | 15.4 | 14.5 | 16.2
P2RY14 (purinergic receptor P2Y14) | SID131523165 | 2 (active) | 22.7 | 19.4 | 26
GDPD5 (glycerophosphodiester phosphodiesterase domain containing 5) | SID131514543 | 0 | 7.9 | 21.3 | -5.5
MTM1 (myotubularin 1) | SID131506553 | 0 | -1.3 | 3.2 | -5.9
PAX7 (paired box 7) | SID131512785 | 0 | 5.9 | 4.7 | 7
CERS4 (ceramide synthase 4) | SID131512875 | 0 | 5.9 | -13.8 | 25.7
ECHDC3 (enoyl-CoA hydratase domain containing 3) | SID131514812 | 0 | 8.3 | 11 | 5.5
MYBL2 (MYB proto-oncogene like 2) | SID131508951 | 0 | 1.6 | 8.7 | -5.4
SCP2D1 (SCP2 sterol binding domain containing 1) | SID131519163 | 1 | 3.2 | -5.9 | 12.3
DNAJB14 (DnaJ heat shock protein family (Hsp40) member B14) | SID131501140 | -1 | -12.1 | -21.8 | -2.3
TXNDC15 (thioredoxin domain containing 15) | SID131520389 | 1 | 9.7 | -3.2 | 22.7
WTIP (WT1 interacting protein) | SID131514301 | 0 | 7.6 | 5 | 10.2
NFXL1 (nuclear transcription factor, X-box binding like 1) | SID131509399 | 0 | 2.1 | 5.9 | -1.6
LOC440667 | SID131518721 | 0 | 25.1 | 34.9 | 15.3
TRAF5 (TNF receptor associated factor 5) | SID131508297 | 0 | 0.9 | 10.3 | -8.5
ANGPTL5 (angiopoietin like 5) | SID131501969 | -1 | -6.2 | 13 | -25.4
CDC42BPB (CDC42 binding protein kinase beta) | SID131520805 | 1 | 11.2 | 27.4 | -5
TMEM270 (transmembrane protein 270) | SID131507276 | 0 | -0.3 | -0.6 | 0
ZBTB25 (zinc finger and BTB domain containing 25) | SID131500368 | -2 (active) | -17.6 | -24.2 | -11
LOC440669 | SID131523186 | 2 (active) | 24 | 24.4 | 23.6

Hits, of those listed so far:
gene | PubChem SID | two-siRNA summed score (-2 to +2) | mean protection from cisplatin (shift in death) (%) | protection from cisplatin (shift in death), siRNA C (%) | protection from cisplatin (shift in death), siRNA D (%)
GUCA1A (guanylate cyclase activator 1A) | SID131500339 | -2 (active) | -21.5 | -18.3 | -24.8
P2RY14 (purinergic receptor P2Y14) | SID131523165 | 2 (active) | 22.7 | 19.4 | 26
ZBTB25 (zinc finger and BTB domain containing 25) | SID131500368 | -2 (active) | -17.6 | -24.2 | -11
LOC440669 | SID131523186 | 2 (active) | 24 | 24.4 | 23.6
